The record followed here is patent US20100040606A1.

B1: antibody from clone 855 (antibody, human IgG1, kappa, V domains shown)
VH: QVQLVQSGPEVKKPGASVKVSCKASGYVLTNYAFSWVRQAPGQGLEWLGWISGSNGNTYYAEKFQGRVTMTTDTSTSTAYMELRSLRSDDTAVYFCARDLLRSTYFDYWGQGTLVTVSS
VL: DIQMTQSPSSVSASVGDRVTITCRASQAISNWLAWYQQKPGKAPKLLIYAASSLQSGVPSRFSGSGSGTDFTLTISGLQPEDFATYYCQQADTFPFTFGPGTKVDIKR
B2: antibody from clone 859 (antibody, V domains shown)
VH: QVQLVESGGGVVQPGRSLRLSCAVSGSSFSKYGIHWVRQAPGKGLEWVAVISYDGSKKYFTDSVKGRFTIARDNSQNTVFLQMNSLRAEDTAVYYCATGGGVNVTSWSDVEHSSSLGYWGLGTLVTVSS
VL: DIQMTQSPSSLSASVGDRVTITCRASQGIRNYLAWYQQKPGKVPKLLVFAASTLQSGVPSRFSGSGSGTDFTLTISSLQPEDVATYYCQRYNSAPLTFGGGTKVEIKR
B3: antibody from clone 835 (antibody, human IgG1, kappa, V domains shown)
VH: QVQLVQSGAEVKRPGASVKVSCKASGYTFISYGFSWVRQAPGQGLEWMGWSSVYNGDTNYAQKFHGRVNMTTDTSTNTAYMELRGLRSDDTAVYFCARDRNVVLLPAAPFGGMDVWGQGTMVTVSS
VL: DIQLTQSPSFLSASLEDRVTITCRASQGISSYLAWYQQKPGKAPKLLLDAASTLQSGVPSRFSGSGSGTEFTLTISSLQPEDFATYYCQQLNSYPRTFGQGTKVDIKR
B4: antibody from clone 811 (antibody, V domains shown)
VH: QVQLVQSGAVVETPGASVKVSCKASGYIFGNYYIHWVRQAPGQGLEWMAVINPNGGSTTSAQKFQDRITVTRDTSTTTVYLEVDNLRSEDTATYYCARQRSVTGGFDAWLLIPDASNTWGQGTMVTVSS
VL: DIVMTQSPDSLAVSLGERATINCRSSETVLYTSKNQSYLAWYQQKARQPPKLLLYWASTRESGVPARFSGSGSGTDFTLAISSLQAEDVAVYYCQQFFRSPFTFGPGTRLEIKR
B5: antibody from clone 830 (antibody, V domains shown)
VH: QVQLVQSGAEVKVPGASVKVSCKASGYTFTTYGVSWVRQAPGQGLEWMGWISAYNGNTYYLQKLQGRVTMTTDTSTSTAYMELRGLRSDDTAMYYCARDRVGGSSSEVLSRAKNYGLDVWGQGTTVTVSS
VL: DIQMTQSPSTLSASVGDRVTITCRASQSVTSELAWYQQKPGKAPNFLIYKASSLESGVPSRFSGSGSGTEFTLTISSLQPDDFATYYCQQYNSFPYTFGQGTKLEIKR
B6: antibody from clone 853 (antibody, human IgG1, kappa, V domains shown)
VH: EVQLVQSGAEVKKPGQSLKISCKTSGYIFTNYWIGWVRQRPGKGLEWMGVIFPADSDARYSPSFQGQVTISADKSIGTAYLQWSSLKASDTAIYYCARPKYYFDSSGQFSEMYYFDFWGQGTLVTVSS
VL: EIVLTQSPGTLSLSPGERATLSCRASQSVSSNYLAWYQQKPGQAPRLLIYGASSRAAGMPDRFSGSGSGTDFTLTISRLEPEDFAVYYCQQYGNSPLTFGGGTEVEIKR
B7: antibody from clone 816 (antibody, human IgG1, kappa, V domains shown)
VH: EVQLLESGGGLVQPGGSLRLSCVASGFTFSTYAMTWVRQAPGKGLEWVSVIRASGDSEIYADSVRGRFTISRDNSKNTVFLQMDSLRVEDTAVYFCANIGQRRYCSGDHCYGHFDYWGQGTLVTVSS
VL: DIVMTQSPLSLPVTPGEPASISCRSSQSLLHSDGRYYVDWYLQKPGQSPHLLIYLASNRASGVPDRFTGSGSGTDFTLKISRVEAEDVGVYYCMQGLHTPWTFGQGTKVDIKR
B8: antibody from clone 814 (antibody, V domains shown)
VH: QVQLVESGGGVVQPGKSVRLSCVGSGFRLMDYAMHWVRQAPGKGLDWVAVISYDGANEYYAESVKGRFTVSRDNSDNTLYLQMKSLRAEDTAVYFCARAGRSSMNEEVIMYFDNWGLGTLVTVSS
VL: DIQMTQSPSTLSASVGDRVTITCRASQSIGSRLAWYQQQPGKAPKFLIYDASSLESGVPSRFSGSGSGTEFTLTISSLQPEDLATYYCQQYNRDSPWTFGQGTKVEIKR

These are yes or no findings as the source states them, for the method shown. Binding can be weak; no strength is given.

The test concerns the target RSV G protein (receptor-binding glycoprotein) (human respiratory syncytial virus, strain not stated per clone). The test is described as follows: ELISA, FLISA and/or Biacore. Background: An ELISA detects its analyte on a solid surface through an enzyme-linked reagent.
Take B1: the binding result is “binds”.
To B2 belongs “binds”; to B3, “binds”.
Turning to B4, the binding entry is given as “binds”.
Under B5 stands “binds”; under B6, “binds”.
For B7, the binding result is on record as “binds”.
Under B8 stands “binds”.
